According to patent US20200368208, “Protein Translation Inhibitors and Uses Thereof” (University of Baltimore, Maryland, published 2020):

Tested on: Iron Responsive Protein (IRP)
Assay: EMSA
Conditions: IRE length (28 or 51 nt) used in this figure not stated; disrupted only at very high compound 1 (5.5 mM); label: 3' biotin

Sequence: UCCUGCUUCAACAGUGCUUGGACGGAAC [IRE 28nt biotin]
- binding result: binds

Construct, isoform or probe ends are uncertain for at least one entry.
